From the supplement of paper PMC10849652
This is one part of the list.

Amino acid sequences for entries named in this document (tags omitted). A change or cut given only in a name is not applied to a line headed by its entry.
UniProt Q9Y446: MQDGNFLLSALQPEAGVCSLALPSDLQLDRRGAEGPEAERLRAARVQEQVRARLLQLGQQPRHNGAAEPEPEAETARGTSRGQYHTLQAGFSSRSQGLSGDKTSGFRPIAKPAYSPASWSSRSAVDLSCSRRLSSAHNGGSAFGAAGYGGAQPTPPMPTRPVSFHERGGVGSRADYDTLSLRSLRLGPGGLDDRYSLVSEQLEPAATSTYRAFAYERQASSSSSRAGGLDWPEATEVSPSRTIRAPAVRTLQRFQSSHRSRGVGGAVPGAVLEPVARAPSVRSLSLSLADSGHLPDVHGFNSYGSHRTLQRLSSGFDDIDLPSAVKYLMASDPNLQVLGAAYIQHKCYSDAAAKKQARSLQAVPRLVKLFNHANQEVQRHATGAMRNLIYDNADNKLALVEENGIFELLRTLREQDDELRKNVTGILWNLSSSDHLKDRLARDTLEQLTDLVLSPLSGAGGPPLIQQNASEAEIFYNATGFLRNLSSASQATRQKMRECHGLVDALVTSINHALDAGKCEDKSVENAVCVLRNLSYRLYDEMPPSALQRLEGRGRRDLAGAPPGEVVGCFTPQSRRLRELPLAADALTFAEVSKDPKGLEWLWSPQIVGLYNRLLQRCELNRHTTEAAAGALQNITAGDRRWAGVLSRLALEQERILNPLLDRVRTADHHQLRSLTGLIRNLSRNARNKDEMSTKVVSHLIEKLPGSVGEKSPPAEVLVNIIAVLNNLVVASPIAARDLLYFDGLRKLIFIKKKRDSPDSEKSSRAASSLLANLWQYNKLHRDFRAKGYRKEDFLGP
UniProt O43164: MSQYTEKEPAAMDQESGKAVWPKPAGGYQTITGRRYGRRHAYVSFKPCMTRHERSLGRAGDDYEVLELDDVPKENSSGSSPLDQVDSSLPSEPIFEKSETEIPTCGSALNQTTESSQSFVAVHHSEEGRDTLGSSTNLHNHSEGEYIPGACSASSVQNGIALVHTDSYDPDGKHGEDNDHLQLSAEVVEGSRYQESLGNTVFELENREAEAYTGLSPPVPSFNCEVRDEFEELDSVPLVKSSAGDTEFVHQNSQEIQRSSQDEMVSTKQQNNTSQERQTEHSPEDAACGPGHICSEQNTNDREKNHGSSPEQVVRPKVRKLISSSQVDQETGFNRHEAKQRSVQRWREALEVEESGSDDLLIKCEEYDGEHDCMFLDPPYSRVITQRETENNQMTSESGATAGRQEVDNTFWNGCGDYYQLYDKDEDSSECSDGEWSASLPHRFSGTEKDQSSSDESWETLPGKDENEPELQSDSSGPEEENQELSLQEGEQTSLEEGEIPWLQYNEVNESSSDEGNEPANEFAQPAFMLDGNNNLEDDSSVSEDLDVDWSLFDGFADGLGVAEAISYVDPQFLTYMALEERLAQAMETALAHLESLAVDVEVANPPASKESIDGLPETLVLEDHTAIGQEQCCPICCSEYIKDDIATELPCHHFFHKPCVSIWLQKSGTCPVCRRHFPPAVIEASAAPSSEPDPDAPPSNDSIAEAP
UniProt A6NDG6: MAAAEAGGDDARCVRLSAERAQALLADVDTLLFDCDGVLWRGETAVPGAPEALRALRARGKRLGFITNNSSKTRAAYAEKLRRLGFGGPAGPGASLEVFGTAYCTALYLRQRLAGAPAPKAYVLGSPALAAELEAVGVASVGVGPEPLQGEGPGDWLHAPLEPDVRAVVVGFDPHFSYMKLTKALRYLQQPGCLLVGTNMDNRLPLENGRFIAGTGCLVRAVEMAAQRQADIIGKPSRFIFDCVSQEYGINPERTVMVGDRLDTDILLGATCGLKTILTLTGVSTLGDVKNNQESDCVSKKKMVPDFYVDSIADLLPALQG
UniProt Q8TBX8: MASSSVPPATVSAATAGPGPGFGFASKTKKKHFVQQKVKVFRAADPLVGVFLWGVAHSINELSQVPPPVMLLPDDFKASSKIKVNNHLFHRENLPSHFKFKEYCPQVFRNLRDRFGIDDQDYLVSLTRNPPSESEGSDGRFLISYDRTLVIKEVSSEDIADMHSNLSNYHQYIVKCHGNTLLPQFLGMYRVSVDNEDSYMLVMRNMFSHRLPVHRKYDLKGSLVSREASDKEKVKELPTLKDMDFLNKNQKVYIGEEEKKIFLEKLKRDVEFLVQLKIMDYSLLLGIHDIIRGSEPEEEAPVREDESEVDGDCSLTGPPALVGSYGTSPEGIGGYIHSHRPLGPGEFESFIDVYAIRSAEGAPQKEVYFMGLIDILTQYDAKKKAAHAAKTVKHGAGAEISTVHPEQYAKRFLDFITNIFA
UniProt Q01970, whole entry, looked up: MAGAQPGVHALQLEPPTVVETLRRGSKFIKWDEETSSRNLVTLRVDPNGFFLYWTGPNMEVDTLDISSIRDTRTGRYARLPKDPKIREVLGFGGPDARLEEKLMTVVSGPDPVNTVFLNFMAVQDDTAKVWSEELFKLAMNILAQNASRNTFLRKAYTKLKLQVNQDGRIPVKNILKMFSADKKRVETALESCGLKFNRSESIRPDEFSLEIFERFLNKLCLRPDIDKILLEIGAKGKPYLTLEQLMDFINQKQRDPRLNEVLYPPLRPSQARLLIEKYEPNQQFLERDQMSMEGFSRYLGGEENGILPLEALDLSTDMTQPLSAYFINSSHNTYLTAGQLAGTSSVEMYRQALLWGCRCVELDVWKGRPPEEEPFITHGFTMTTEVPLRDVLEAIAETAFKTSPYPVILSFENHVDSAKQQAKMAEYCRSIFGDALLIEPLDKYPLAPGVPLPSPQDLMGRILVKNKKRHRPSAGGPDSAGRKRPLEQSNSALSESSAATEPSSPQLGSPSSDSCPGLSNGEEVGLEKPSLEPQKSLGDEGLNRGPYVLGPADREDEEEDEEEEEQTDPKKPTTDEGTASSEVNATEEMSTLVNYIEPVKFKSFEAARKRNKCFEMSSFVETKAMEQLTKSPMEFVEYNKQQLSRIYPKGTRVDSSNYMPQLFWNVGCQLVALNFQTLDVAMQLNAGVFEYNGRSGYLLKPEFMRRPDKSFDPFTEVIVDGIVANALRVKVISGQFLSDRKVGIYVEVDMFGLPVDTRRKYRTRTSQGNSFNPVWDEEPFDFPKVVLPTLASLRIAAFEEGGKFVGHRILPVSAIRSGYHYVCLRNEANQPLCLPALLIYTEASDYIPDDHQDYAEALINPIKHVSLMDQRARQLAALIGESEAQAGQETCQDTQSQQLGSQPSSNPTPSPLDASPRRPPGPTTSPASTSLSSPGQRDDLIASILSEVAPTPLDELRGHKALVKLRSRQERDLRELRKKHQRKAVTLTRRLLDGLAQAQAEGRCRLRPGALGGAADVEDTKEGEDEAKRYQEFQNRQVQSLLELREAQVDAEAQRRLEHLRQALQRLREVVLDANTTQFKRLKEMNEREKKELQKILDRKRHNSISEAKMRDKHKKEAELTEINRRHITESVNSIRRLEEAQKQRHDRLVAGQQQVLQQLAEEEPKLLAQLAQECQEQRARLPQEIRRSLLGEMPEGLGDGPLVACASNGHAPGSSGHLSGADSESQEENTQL
UniProt Q7Z7B1: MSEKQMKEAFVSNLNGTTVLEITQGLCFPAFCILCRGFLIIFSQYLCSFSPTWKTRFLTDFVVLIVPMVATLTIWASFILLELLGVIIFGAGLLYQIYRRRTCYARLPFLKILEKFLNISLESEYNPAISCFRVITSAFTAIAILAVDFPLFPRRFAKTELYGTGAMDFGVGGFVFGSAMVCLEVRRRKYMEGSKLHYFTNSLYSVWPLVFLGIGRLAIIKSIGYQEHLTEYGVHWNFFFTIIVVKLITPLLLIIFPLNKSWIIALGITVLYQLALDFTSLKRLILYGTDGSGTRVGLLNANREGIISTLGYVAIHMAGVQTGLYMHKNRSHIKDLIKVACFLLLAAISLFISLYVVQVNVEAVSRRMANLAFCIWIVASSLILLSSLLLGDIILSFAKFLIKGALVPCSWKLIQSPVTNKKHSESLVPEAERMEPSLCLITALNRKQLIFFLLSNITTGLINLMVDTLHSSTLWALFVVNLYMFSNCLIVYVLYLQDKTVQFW
UniProt Q8NCC3: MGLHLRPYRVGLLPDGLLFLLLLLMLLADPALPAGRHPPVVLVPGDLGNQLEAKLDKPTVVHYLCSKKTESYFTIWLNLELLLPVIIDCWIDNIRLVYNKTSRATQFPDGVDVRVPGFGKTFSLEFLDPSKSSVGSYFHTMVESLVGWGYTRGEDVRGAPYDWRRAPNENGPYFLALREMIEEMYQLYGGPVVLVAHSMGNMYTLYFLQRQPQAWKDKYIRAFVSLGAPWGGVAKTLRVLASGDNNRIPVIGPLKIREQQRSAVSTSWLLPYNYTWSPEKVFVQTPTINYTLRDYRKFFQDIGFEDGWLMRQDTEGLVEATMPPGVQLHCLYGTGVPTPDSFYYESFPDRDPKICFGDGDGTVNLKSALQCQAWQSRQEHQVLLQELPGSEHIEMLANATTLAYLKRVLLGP
UniProt Q5H8A4: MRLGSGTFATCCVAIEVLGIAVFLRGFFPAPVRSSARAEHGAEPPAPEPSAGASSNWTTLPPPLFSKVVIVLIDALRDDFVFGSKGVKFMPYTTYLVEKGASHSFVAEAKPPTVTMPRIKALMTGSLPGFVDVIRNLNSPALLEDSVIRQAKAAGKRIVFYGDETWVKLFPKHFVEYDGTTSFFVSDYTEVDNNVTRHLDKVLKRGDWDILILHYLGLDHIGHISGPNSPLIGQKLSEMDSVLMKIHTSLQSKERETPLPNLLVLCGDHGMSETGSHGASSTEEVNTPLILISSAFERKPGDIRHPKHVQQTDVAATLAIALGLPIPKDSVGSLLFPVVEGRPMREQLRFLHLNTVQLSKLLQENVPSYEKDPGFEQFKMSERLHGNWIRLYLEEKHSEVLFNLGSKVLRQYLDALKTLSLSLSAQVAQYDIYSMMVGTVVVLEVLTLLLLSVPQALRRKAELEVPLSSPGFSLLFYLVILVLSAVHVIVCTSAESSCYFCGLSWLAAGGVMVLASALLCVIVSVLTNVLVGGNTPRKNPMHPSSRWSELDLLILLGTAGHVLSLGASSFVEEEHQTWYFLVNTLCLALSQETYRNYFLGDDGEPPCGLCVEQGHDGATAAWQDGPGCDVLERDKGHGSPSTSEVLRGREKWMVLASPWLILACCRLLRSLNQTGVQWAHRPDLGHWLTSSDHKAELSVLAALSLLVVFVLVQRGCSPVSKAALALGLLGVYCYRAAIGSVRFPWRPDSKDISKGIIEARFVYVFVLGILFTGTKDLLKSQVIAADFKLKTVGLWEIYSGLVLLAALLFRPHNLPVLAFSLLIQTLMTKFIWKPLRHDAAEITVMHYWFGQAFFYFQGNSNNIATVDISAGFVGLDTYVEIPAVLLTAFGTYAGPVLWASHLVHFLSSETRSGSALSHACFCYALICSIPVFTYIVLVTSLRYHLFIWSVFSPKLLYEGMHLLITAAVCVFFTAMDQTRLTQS
UniProt P12273: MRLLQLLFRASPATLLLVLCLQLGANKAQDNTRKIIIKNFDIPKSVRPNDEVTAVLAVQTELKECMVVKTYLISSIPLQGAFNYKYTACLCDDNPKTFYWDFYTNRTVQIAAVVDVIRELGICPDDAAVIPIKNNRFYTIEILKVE
UniProt O75167: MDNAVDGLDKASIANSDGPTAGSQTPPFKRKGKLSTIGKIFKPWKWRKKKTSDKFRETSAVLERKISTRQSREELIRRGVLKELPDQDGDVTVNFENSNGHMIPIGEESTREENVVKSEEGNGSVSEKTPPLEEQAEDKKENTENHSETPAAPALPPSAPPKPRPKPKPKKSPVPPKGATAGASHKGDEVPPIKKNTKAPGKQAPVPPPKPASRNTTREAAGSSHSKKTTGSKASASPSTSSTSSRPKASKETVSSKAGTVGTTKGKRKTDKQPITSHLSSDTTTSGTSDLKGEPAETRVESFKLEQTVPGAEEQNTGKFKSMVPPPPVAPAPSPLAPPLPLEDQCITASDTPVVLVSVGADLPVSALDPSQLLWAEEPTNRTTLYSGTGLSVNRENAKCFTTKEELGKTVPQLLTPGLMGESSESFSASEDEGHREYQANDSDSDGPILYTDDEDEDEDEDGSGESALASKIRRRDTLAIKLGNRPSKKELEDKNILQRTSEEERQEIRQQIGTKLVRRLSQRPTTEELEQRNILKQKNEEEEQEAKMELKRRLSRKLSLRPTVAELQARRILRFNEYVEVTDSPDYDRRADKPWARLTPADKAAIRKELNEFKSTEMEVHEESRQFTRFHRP
UniProt Q9UHV9, whole entry, looked up: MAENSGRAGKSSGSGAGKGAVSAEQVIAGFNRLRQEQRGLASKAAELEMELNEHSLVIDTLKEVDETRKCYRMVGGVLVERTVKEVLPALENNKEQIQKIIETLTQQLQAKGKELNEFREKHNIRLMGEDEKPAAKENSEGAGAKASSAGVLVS
UniProt Q9GZP4: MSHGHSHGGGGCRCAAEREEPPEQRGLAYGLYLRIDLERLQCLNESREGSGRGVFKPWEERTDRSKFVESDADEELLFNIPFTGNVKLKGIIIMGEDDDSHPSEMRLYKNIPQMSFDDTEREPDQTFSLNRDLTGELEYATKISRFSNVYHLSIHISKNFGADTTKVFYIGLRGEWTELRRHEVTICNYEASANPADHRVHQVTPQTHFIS

Tests used:
Experiment in all cases: log2 fold change, soluble protein after heating vs DMSO (PISA); higher = thermal stabilisation; K562 cells, 10 uM, 30 min; active = over 0.2 and 3.5 SD of the protein, either way, in both replicates (recomputed)
[1] = compound: NC(=O)Nc1cc(-c2cccc(F)c2)sc1C(=O)N[C@H]1CCCNC1
How it was run: (§1)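 For each measurement, 10 μM compound was applied for 30 min to K562 cells at 2×10^6 cells/mL. Aliquots were heated for 3 min across 48°C-58°C, pooled, and extracted in PBS with 0.5% NP-40 at 4°C; the supernatant after 21,000xg for 90 min was soluble protein. This was quantified by TMTpro 16plex LC-MS/MS with channel sums equalised, and thermal stability was reported relative to control samples from duplicates, on a log2 fold-change scale.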

[2] = compound: NC(=O)c1cnc(N[C@@H]2CCCC[C@@H]2N)nc1Nc1cccc(-n2nccn2)c1
How it was run: as §1

[3] = compound: NC1(c2ccc(-c3nc4ccn5c(=O)[nH]nc5c4cc3-c3ccccc3)cc2)CCC1
How it was run: as §1

[4] = compound: NCC(=O)Nc1ccc(-n2nc(C(F)(F)F)cc2-c2ccc3c(ccc4ccccc43)c2)cc1
How it was run: as §1

[5] = compound: Nc1ccccc1NC(=O)c1ccc(CNC(=O)OCc2cccnc2)cc1 [entinostat]
How it was run: as §1

[6] = compound: O=C(CCCCCCC(=O)Nc1ccccc1)NO [vorinostat]
How it was run: as §1

[7] = compound: O=C(CCCCCCNC(=O)c1cnc(N(c2ccccc2)c2ccccc2Cl)nc1)NO [citarinostat]
How it was run: as §1

[8] = compound: O=C(O)c1ccc2c(c1)nc(Nc1cccc(Cl)c1)c1ccncc12 [silmitasertib]
How it was run: as §1

[9] = compound: O=C1NC(=O)C(c2cnc3ccccn23)=C1c1cn2c3c(cc(F)cc13)CN(C(=O)N1CCCCC1)CC2
How it was run: as §1

[10] = compound: c1cc(OCCN2CCCCC2)cc(-c2n[nH]c3ccc(-c4nnc[nH]4)cc23)c1
How it was run: as §1

| Target | log2 fold change [1] | log2 fold change [2] | log2 fold change [3] | log2 fold change [4] | log2 fold change [5] | log2 fold change [6] | log2 fold change [7] | log2 fold change [8] | log2 fold change [9] | log2 fold change [10] |
| --- | --- | --- | --- | --- | --- | --- | --- | --- | --- | --- |
| PIGK (UniProt Q92643) | inactive: -0.031 | inactive: 0.005 | inactive: -0.046 | inactive: -0.01 | inactive: 0.023 | inactive: -0.077 | inactive: 0.034 | inactive: 0.016 | inactive: -0.086 | inactive: -0.043 |
| PHF3 (UniProt Q92576) | inactive: 0.107 | inactive: 0.124 | inactive: 0.106 | inactive: 0.033 | inactive: 0.014 | inactive: 0.042 | inactive: -0.06 | inactive: 0.117 | inactive: -0.001 | inactive: -0.202 |
| PKP3 isoform 2 (UniProt Q9Y446) | inactive: -0.045 | inactive: 0.032 | inactive: 0.081 | inactive: 0 | inactive: 0.187 | inactive: 0.281 | inactive: -0.038 | inactive: 0.068 | inactive: 0.252 | inactive: -0.133 |
| PJA2 (UniProt O43164) | inactive: -0.006 | inactive: -0.047 | inactive: -0.049 | inactive: 0.029 | inactive: 0.004 | inactive: -0.001 | inactive: -0.005 | inactive: 0.026 | inactive: -0.059 | inactive: -0.075 |
| PGP (UniProt A6NDG6) | inactive: -0.005 | inactive: 0.011 | inactive: 0.024 | inactive: 0.021 | inactive: -0.025 | inactive: -0.009 | inactive: -0.017 | inactive: -0.02 | inactive: -0.02 | inactive: -0.006 |
| PHGDH (UniProt O43175) | inactive: 0.038 | inactive: -0.009 | inactive: 0.013 | inactive: 0.015 | inactive: 0.002 | inactive: -0.027 | inactive: 0.025 | inactive: -0.055 | inactive: 0 | inactive: 0.011 |
| PIP4K2C (UniProt Q8TBX8) | inactive: 0.016 | inactive: 0.192 | inactive: -0.125 | inactive: 0.293 | inactive: -0.027 | inactive: -0.071 | inactive: -0.036 | inactive: 0.497 | inactive: 0.12 | inactive: 0.036 |
| PLCB3 (UniProt Q01970) | inactive: -0.005 | inactive: -0.086 | inactive: -0.141 | inactive: -0.023 | inactive: 0.037 | inactive: -0.008 | inactive: -0.007 | inactive: 0.008 | inactive: 0.005 | inactive: 0.064 |
| PFN1 (UniProt P07737) | inactive: -0.015 | inactive: -0.007 | inactive: -0.049 | inactive: -0.051 | inactive: 0.013 | inactive: -0.013 | inactive: 0.038 | inactive: -0.004 | inactive: -0.026 | inactive: -0.02 |
| PIP4P1 isoform 2 (UniProt Q86T03) | inactive: 0.012 | inactive: 0.086 | inactive: -0.326 | inactive: 0.095 | inactive: 0.042 | inactive: -0.019 | inactive: 0.01 | inactive: 0.054 | inactive: 0.043 | inactive: -0.031 |
| PIGQ (UniProt Q9BRB3) | inactive: 0.037 | inactive: 0.132 | inactive: -0.298 | inactive: 0.042 | inactive: -0.065 | inactive: 0.108 | inactive: -0.09 | inactive: 0.101 | inactive: -0.439 | inactive: 0.146 |
| PIGT (UniProt Q969N2) | inactive: -0.01 | inactive: -0.002 | inactive: -0.077 | inactive: -0.002 | inactive: 0.018 | inactive: 0.05 | inactive: 0.04 | inactive: 0 | inactive: -0.01 | inactive: -0.089 |
| PGAM4 (UniProt Q8N0Y7) | inactive: 0.034 | inactive: 0.034 | inactive: 0.02 | inactive: 0.021 | inactive: -0.047 | inactive: -0.03 | inactive: 0.01 | inactive: -0.018 | inactive: -0.024 | inactive: 0.025 |
| PIGW (UniProt Q7Z7B1) | inactive: 0.048 | inactive: -0.012 | inactive: -0.121 | inactive: -0.084 | inactive: 0.006 | inactive: -0.027 | inactive: 0.009 | inactive: -0.045 | inactive: -0.015 | inactive: 0.071 |
| PFDN6 (UniProt O15212) | inactive: 0.031 | inactive: -0.002 | inactive: 0.025 | inactive: 0.06 | inactive: 0.013 | inactive: 0.018 | inactive: 0.075 | inactive: -0.036 | inactive: 0.062 | inactive: -0.019 |
| PKM (UniProt P14618) | inactive: 0.01 | inactive: -0.029 | inactive: 0.011 | inactive: -0.025 | inactive: -0.013 | inactive: -0.009 | inactive: 0.016 | inactive: -0.016 | inactive: -0.032 | inactive: -0.02 |
| PISD (UniProt Q9UG56) | inactive: 0.023 | inactive: 0.019 | inactive: -0.009 | inactive: 0.045 | inactive: -0.047 | inactive: 0.069 | inactive: 0.035 | inactive: -0.019 | inactive: -0.097 | inactive: -0.006 |
| PLA2G15 (UniProt Q8NCC3) | inactive: 0.06 | inactive: -0.042 | inactive: -0.023 | inactive: 0.001 | inactive: 0.056 | inactive: 0.073 | active: 0.279 | inactive: 0.076 | inactive: -0.074 | inactive: -0.008 |
| PIK3R4 (UniProt Q99570) | inactive: -0.036 | inactive: 0.056 | inactive: 0.009 | inactive: -0.046 | inactive: -0.02 | inactive: -0.039 | inactive: 0.016 | inactive: 0.043 | inactive: 0.01 | inactive: 0.031 |
| PIGG (UniProt Q5H8A4) | inactive: -0.046 | inactive: -0.032 | inactive: -0.06 | inactive: 0.052 | inactive: 0.039 | inactive: -0.104 | inactive: 0.052 | inactive: 0.025 | inactive: -0.019 | inactive: 0.029 |
| PEX2 (UniProt P28328) | inactive: 0.032 | inactive: 0.019 | inactive: -0.17 | inactive: -0.051 | inactive: -0.079 | inactive: 0.03 | inactive: 0.156 | inactive: 0.156 | inactive: -0.016 | inactive: -0.034 |
| PIP (UniProt P12273) | inactive: 1.13 | inactive: 0.153 | inactive: 0.208 | inactive: 0.225 | inactive: 0.302 | inactive: 0.153 | inactive: -0.553 | inactive: -0.122 | inactive: 0.011 | inactive: 0.541 |
| PHACTR2 isoform 4 (UniProt O75167) | inactive: -0.097 | inactive: -0.126 | inactive: 0.064 | inactive: -0.03 | inactive: 0.008 | inactive: -0.118 | inactive: -0.027 | inactive: 0.03 | inactive: 0.01 | inactive: -0.095 |
| PLD1 (UniProt Q13393) | inactive: -0.1 | inactive: -0.224 | inactive: -0.182 | inactive: -0.035 | inactive: 0.048 | inactive: 0.042 | inactive: 0.146 | inactive: 0.098 | inactive: -0.012 | inactive: -0.243 |
| PFDN2 (UniProt Q9UHV9) | inactive: 0.021 | inactive: -0.027 | inactive: 0.009 | inactive: 0.02 | inactive: -0.004 | inactive: -0.02 | inactive: 0.043 | inactive: 0.001 | inactive: -0.036 | inactive: -0.003 |
| PGGHG (UniProt Q32M88) | inactive: -0.036 | inactive: -0.155 | inactive: -0.051 | inactive: 0.083 | inactive: -0.033 | inactive: 0.019 | inactive: -0.009 | inactive: 0.073 | inactive: -0.076 | inactive: 0.058 |
| PIK3R1 (UniProt P27986) | inactive: -0.08 | inactive: -0.056 | inactive: -0.016 | inactive: -0.021 | inactive: -0.026 | inactive: 0.029 | inactive: 0.007 | inactive: -0.013 | inactive: 0.028 | inactive: 0.126 |
| PITRM1 isoform 2 (UniProt Q5JRX3) | inactive: 0.116 | inactive: -0.077 | inactive: -0.051 | inactive: -0.061 | inactive: 0.097 | inactive: 0.089 | inactive: 0.104 | inactive: -0.045 | inactive: 0.05 | inactive: 0.096 |
| PGM2 (UniProt Q96G03) | inactive: 0.019 | inactive: 0.023 | inactive: -0.02 | inactive: 0.043 | inactive: 0.002 | inactive: -0.006 | inactive: 0.047 | inactive: -0.012 | inactive: -0.027 | inactive: 0 |
| PITHD1 (UniProt Q9GZP4) | inactive: -0.009 | inactive: -0.004 | inactive: 0.056 | inactive: 0 | inactive: 0.04 | inactive: -0.042 | inactive: -0.036 | inactive: 0 | inactive: -0.048 | inactive: 0 |

Two neighbouring entries already listed, for reference:

| Target | log2 fold change [1] | log2 fold change [2] | log2 fold change [3] | log2 fold change [4] | log2 fold change [5] | log2 fold change [6] | log2 fold change [7] | log2 fold change [8] | log2 fold change [9] | log2 fold change [10] |
| --- | --- | --- | --- | --- | --- | --- | --- | --- | --- | --- |
| PFN1 (UniProt P07737) | inactive: -0.015 | inactive: -0.007 | inactive: -0.049 | inactive: -0.051 | inactive: 0.013 | inactive: -0.013 | inactive: 0.038 | inactive: -0.004 | inactive: -0.026 | inactive: -0.02 |
| PIP4P1 isoform 2 (UniProt Q86T03) | inactive: 0.012 | inactive: 0.086 | inactive: -0.326 | inactive: 0.095 | inactive: 0.042 | inactive: -0.019 | inactive: 0.01 | inactive: 0.054 | inactive: 0.043 | inactive: -0.031 |
